B1: sGFP-Mb60: fusion polypeptide of supercharged GFP and inhibiting monobody Mb60 (aka Mb2) (protein)
chain: GSVSSVPTKLEVVAATPTSLLISWDAPAVTVVHYVITYGETGGNSPVQEFTVPGSKSTATISGLKPGVDYTITVYAIDFYWGSYSPISINYRT
modifications: left off: large carriers
B2: sGFP-Mb54: fusion polypeptide of supercharged GFP and activating monobody Mb54 (aka Mb1) (protein)
chain: GSVSSVPTKLEVVAATPTSLLISWDAQTYQMYDYVSYYRITYGETGGNSPVQEFTVPGYYSTATISGLKPGVDYTITVYAEGYYSSYSPISINYRT
modifications: left off: large carriers
B3: sGFP-Mb6: fusion polypeptide of supercharged GFP and activity-neutral monobody Mb6 (protein)
chain: GSVSSVPTKLEVVAATPTSLLISWDAFGHQYEPVYYYRITYGETGGNSPVQEFTVPGYYSTATISGLKPGVDYTITVYAWYVDGSYSSPISINYRT
modifications: left off: large carriers

Test system: HEK293 cells
Assay: Delivery of sGFP-monobody fusion polypeptides into cultured HEK293 cells (microscopy)
Assay type: cell-based, human
Details: for delivery into HEK293 cells: FIG. 17F

Molecule	delivery into HEK293 cells	exposure time for optimal cell delivery (HEK293 cells, FIG. 17D)
B1	delivered into cells	7 h
B2	delivered into cells	
B3	delivered into cells	

Source: patent publication US11266616B2, “Compositions and methods for inhibiting kinase activity” (BRANDEIS UNIVERSITY, priority 2016, dated 2022)
